{"source": "patent US20190263867A1", "about": "“TAU PEPTIDES, METHODS OF MAKING, AND METHODS OF USING” (priority 2018, published 2019)", "system": "cultured rat hippocampal neurons expressing A53T αS", "experiment": "AMPA receptor mEPSCs in neurons transfected with A53T αS", "format": "cell-based", "details": "FK506 versus vehicle", "note": "At least one compound was matched to its structure with a doubt left."}
{"smiles": "C=CC[C@@H]1/C=C(\\C)C[C@H](C)C[C@H](OC)[C@H]2O[C@@](O)(C(=O)C(=O)N3CCCC[C@H]3C(=O)O[C@H](/C(C)=C/[C@@H]3CC[C@@H](O)[C@H](OC)C3)[C@H](C)[C@@H](O)CC1=O)[C@H](C)C[C@@H]2OC", "note": "[FK506]", "values": [{"measurement": "mEPSC amplitudes in neurons expressing A53T αS", "value": "treated with vehicle were significantly smaller than those in neurons expressing A53T αS treated with FK506"}, {"measurement": "mEPSC frequency in neurons expressing A53T αS", "value": "unaffected"}]}
